These are yes or no findings as the source states them, for the method shown. Binding seen in cells or lysates may run through a third protein. Some binding calls cover weakened binding; strength is not graded here. For some assays here: Sequences can lack the tags named with a protein.

Sequences of proteins named here, by UniProt entry; tags and fusion partners are left off. Residues count along the entry.
UniProt P37173, residues 23-567: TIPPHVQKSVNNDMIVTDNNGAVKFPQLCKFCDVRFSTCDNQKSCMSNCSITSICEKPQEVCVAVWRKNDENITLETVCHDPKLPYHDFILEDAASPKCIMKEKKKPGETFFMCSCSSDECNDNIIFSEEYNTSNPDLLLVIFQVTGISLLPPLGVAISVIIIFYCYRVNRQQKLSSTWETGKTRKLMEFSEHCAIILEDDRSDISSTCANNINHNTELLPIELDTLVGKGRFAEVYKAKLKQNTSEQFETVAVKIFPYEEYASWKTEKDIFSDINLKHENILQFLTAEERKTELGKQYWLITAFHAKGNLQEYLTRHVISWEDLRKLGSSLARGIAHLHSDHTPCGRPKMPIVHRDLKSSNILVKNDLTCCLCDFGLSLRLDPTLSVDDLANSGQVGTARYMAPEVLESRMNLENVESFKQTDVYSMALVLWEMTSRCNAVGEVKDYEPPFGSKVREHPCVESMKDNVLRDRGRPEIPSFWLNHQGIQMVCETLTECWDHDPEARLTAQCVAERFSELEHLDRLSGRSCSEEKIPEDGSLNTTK

The target of experiment [1] is T1, myc-TGFβRI (human TGF-β receptor type I, from pcMV-myc-TGFβRI) (human) (UniProt P36897).
T1 sequence: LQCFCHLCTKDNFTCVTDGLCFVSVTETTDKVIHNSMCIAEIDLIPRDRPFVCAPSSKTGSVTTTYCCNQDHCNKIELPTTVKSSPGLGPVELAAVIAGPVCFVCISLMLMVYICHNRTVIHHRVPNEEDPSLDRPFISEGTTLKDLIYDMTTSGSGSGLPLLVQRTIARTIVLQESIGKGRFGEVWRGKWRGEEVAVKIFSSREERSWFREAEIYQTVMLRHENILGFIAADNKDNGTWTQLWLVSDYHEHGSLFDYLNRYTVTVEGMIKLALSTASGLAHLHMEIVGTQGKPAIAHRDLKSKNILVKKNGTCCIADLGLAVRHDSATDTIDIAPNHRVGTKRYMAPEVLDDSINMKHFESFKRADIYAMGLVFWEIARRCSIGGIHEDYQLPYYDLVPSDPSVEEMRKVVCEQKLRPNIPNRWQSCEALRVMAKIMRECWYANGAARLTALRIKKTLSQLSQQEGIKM
The experiment is described as follows: co-IP; HEK 293T cells co-expressing pcMV-myc-TGFβRII or pcMV-myc-TGFβRI with pcDNA3.1-TSP50; cell extracts (IP lysis solution) precipitated with anti-myc antibody on Protein A/G magnetic beads overnight at 4 °C, blot with anti-TSP50; reciprocal co-IP also done.

Experiment [2] concerns the target myc-TGFβRII (human TGF-β receptor type II, from pcMV-myc-TGFβRII) (human) (UniProt P37173). Described as above.

B1: Testis-specific protease 50 (TSP50), expressed from pcDNA3.1-TSP50 (protein, UniProt Q9UI38 40-385)
chain: AGEAPGALSTADPADQSVQCVPKATCPSSRPRLLWQTPTTQTLPSTTMETQFPVSEGKVDPYRSCGFSYEQDPTLRDPEAVARRWPWMVSVRANGTHICAGTIIASQWVLTVAHCLIWRDVIYSVRVGSPWIDQMTQTASDVPVLQVIMHSRYRAQRFWSWVGQANDIGLLKLKQELKYSNYVRPICLPGTDYVLKDHSRCTVTGWGLSKADGMWPQFRTIQEKEVIILNNKECDNFYHNFTKIPTLVQIIKSQMMCAEDTHREKFCYELTGEPLVCSMEGTWYLVGLVSWGAGCQKSEAPPIYLQVSSYQHWIWDCLNGQALALPAPSRTLLLALPLPLSLLAAL
As for B1, the binding entry in experiment [1] is “no binding”; in experiment [2], “binds”.

The values are drawn from article PMC10953580.
